Results on one sequence are retold here after PMC5996148.

By UniProt entry, the sequences of proteins in these tests, tags left out. Where a name states a change or a piece, a line headed by the entry shows the natural chain unless it says otherwise.
UniProt Q9H3H9: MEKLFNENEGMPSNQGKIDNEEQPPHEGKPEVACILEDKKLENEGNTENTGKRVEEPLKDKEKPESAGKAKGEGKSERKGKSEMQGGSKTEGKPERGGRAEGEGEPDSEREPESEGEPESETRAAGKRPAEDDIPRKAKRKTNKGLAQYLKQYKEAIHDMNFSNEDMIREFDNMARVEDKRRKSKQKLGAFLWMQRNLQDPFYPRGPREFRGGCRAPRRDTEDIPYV

The other results are listed elsewhere or left out. For some of these results: The exact form of the protein is not confirmed.

What all share (assay): protein microarray (ProtoArray v5.0), streptavidin-Alexa Fluor 647
Holding throughout (settings): 3'-biotin; 20 mM Tris (pH 7.5), 5 mM MgCl2, 100 mM KCl, 0.1% Tween-20, A/T-rich and random oligonucleotide blockers; temperature not stated; high values mean tight binding

For test [1], the system named is TBL1X (human).
The test system of test [2] is TBXAS1 (human).
Test [3] addresses TCEAL2 (UniProt Q9H3H9).
For test [4], the system named is TCP11 (human).
For test [5], the system named is TCP11L1 (human).
Test [6] has as its system TEAD4 (human).
Test [7] addresses T1, TEKT4 (UniProt Q8WW24).
T1 sequence: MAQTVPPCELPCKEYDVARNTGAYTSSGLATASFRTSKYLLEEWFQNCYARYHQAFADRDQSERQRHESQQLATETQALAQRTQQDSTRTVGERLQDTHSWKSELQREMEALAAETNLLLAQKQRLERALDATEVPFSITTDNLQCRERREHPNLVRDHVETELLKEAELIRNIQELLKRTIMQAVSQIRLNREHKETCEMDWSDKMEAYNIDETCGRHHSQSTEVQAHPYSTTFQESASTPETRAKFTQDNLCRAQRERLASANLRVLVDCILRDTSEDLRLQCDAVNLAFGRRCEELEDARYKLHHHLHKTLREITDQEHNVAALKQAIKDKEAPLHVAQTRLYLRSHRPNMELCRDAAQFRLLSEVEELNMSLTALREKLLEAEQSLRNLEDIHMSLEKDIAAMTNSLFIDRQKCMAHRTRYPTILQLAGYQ

The subject of test [8] is TESC (human).
Test [9] has as its system TEX13B (human).
Test [10] deals with TF (human).

Take “GGGGACAGGGGTATGGGGAGGGG [G4-3 biotinylated (CtG)]”: the binding signal in test [1] was -0.333 z-score; in test [2], -0.305 z-score; in test [3], 4.59 z-score; in [4], -0.337 z-score; in test [5] it was -0.337 z-score; in [6], -0.318 z-score. The binding signal in [7] is -0.316 z-score; in test [8], -0.328 z-score; in test [9] it was -0.338 z-score; in [10], -0.333 z-score.
